This is one part of the list. Small differences around the control level are noise.

The chains behind the UniProt entries cited, without tags or fusion partners. Where a name states a change or a piece, a line headed by the entry shows the natural chain unless it says otherwise.
UniProt Q96B26, whole entry: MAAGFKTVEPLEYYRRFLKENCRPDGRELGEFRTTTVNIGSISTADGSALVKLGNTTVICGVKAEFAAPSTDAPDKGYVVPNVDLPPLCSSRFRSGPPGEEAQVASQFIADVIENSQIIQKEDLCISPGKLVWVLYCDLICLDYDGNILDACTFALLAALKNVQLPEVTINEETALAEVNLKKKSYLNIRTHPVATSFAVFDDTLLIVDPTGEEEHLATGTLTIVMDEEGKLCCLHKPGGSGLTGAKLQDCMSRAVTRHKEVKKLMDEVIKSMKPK
UniProt Q96CS4: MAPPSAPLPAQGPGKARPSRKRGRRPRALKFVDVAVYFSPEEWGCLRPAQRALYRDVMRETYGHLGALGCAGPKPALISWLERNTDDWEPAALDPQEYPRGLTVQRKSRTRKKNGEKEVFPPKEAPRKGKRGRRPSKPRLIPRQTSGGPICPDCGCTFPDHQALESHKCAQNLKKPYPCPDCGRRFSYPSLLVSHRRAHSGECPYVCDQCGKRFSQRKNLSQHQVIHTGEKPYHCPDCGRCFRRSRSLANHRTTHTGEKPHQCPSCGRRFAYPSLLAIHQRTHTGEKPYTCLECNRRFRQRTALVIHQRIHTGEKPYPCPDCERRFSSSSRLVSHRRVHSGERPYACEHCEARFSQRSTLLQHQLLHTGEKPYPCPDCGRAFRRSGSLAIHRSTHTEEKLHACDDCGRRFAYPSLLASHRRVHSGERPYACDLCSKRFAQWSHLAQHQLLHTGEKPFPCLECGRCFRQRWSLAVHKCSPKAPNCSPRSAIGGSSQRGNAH
UniProt Q969J2: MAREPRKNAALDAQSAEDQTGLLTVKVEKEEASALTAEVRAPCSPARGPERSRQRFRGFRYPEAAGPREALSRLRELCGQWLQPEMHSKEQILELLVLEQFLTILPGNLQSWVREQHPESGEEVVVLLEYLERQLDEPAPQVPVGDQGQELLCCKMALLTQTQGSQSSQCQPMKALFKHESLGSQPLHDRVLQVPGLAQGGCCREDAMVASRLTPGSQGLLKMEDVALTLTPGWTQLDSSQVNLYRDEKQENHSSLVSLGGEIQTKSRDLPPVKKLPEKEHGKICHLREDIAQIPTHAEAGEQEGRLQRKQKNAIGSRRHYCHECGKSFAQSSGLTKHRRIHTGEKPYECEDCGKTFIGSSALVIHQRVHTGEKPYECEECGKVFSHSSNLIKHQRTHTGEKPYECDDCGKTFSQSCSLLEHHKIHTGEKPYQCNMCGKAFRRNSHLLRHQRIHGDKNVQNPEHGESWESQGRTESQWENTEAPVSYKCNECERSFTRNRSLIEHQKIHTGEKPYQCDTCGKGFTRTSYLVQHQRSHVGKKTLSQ
UniProt Q969R5, whole entry: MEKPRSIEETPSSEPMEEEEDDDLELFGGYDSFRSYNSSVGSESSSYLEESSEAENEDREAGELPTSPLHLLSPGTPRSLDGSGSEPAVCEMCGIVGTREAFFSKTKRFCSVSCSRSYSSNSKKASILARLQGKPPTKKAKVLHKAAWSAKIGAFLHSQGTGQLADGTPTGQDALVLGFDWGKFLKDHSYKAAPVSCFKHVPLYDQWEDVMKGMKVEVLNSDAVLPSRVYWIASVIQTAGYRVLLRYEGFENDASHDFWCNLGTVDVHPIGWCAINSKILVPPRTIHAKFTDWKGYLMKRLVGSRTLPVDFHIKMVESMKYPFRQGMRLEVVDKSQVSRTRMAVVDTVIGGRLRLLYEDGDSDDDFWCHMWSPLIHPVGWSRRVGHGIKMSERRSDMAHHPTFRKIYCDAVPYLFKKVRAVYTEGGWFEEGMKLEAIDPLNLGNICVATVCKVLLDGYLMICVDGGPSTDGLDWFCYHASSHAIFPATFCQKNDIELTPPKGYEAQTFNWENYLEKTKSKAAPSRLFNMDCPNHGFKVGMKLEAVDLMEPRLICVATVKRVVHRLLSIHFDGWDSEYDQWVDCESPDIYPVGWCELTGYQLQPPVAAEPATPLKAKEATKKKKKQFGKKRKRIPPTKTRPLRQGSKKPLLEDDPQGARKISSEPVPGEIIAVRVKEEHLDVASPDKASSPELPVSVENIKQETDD
UniProt Q969U6: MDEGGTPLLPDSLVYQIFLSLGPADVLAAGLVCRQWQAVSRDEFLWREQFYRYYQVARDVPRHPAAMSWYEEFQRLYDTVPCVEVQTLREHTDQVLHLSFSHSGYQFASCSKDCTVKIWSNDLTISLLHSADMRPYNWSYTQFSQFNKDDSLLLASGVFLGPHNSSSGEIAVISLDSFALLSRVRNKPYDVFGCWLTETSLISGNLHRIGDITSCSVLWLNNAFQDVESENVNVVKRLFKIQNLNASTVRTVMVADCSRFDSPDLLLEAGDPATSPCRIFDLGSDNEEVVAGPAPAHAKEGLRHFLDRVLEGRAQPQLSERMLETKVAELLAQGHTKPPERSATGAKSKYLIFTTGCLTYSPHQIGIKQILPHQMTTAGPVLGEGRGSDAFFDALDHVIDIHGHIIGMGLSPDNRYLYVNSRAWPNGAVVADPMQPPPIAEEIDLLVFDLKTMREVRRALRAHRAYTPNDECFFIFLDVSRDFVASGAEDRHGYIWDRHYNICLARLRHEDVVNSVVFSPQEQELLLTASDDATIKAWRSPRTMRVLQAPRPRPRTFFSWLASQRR
UniProt Q96A33: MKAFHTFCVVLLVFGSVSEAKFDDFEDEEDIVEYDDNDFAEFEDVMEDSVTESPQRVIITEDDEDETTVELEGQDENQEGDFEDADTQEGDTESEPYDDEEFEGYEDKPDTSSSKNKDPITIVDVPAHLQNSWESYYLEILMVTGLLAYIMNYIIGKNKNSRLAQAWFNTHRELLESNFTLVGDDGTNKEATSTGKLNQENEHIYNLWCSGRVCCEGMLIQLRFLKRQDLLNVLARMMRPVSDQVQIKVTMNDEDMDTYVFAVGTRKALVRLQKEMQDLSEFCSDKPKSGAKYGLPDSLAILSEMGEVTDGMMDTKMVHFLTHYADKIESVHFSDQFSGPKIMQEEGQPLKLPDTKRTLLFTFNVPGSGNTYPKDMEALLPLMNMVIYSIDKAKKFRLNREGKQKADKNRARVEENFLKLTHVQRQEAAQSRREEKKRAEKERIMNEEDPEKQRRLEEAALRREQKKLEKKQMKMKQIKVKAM
UniProt Q96EZ8, whole entry: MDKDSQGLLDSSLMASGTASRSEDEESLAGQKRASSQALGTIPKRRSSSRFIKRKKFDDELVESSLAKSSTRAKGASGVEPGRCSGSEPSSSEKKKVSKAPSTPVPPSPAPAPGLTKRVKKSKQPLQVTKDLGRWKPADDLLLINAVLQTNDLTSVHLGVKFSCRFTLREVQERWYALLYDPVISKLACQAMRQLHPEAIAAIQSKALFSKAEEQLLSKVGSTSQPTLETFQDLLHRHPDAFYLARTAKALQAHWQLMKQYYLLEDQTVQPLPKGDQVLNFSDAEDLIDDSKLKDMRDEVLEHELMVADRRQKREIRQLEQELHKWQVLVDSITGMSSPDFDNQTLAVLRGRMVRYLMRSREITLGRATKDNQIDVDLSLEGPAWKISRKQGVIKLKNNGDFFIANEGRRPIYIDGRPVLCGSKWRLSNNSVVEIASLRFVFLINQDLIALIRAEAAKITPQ
UniProt Q96CN4: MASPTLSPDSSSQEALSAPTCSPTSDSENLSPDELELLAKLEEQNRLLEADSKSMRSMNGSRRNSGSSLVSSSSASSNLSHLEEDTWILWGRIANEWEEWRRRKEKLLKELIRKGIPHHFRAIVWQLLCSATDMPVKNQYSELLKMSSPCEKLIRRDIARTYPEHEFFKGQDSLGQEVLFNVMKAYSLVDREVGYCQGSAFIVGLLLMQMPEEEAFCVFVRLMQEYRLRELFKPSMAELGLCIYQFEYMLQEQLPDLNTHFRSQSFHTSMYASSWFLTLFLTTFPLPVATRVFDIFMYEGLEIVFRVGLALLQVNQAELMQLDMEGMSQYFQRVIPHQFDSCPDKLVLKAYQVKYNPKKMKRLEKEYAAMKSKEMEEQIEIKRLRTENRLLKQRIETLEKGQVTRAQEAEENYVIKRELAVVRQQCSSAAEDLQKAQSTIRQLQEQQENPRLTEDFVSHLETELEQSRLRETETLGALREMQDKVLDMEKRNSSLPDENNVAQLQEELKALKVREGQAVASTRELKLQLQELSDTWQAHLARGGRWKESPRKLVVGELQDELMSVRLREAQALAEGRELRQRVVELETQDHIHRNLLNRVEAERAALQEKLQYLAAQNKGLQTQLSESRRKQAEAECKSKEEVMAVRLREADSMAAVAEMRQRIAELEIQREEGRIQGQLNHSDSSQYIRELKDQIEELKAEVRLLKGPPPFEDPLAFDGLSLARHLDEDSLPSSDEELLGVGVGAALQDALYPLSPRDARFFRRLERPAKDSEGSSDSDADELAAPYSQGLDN
UniProt Q92870: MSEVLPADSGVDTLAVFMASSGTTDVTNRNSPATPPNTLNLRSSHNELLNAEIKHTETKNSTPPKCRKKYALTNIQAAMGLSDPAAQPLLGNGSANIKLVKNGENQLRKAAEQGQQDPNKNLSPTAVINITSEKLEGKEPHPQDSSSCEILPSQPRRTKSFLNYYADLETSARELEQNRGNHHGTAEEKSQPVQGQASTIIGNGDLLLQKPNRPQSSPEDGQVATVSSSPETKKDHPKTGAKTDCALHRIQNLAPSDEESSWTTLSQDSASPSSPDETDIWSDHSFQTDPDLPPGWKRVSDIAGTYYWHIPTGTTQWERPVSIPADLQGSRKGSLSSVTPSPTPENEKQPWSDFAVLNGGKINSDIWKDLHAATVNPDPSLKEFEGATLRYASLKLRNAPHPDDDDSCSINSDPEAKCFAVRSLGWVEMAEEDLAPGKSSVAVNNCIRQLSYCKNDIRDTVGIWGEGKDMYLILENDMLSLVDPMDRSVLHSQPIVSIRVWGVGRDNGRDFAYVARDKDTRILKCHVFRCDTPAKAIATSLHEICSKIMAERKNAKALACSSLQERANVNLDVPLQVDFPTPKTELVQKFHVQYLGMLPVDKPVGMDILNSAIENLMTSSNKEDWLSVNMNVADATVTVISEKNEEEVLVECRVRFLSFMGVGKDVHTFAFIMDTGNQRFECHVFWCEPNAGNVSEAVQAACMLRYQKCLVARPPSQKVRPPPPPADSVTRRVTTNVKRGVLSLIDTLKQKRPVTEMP
UniProt Q96CP6, whole entry: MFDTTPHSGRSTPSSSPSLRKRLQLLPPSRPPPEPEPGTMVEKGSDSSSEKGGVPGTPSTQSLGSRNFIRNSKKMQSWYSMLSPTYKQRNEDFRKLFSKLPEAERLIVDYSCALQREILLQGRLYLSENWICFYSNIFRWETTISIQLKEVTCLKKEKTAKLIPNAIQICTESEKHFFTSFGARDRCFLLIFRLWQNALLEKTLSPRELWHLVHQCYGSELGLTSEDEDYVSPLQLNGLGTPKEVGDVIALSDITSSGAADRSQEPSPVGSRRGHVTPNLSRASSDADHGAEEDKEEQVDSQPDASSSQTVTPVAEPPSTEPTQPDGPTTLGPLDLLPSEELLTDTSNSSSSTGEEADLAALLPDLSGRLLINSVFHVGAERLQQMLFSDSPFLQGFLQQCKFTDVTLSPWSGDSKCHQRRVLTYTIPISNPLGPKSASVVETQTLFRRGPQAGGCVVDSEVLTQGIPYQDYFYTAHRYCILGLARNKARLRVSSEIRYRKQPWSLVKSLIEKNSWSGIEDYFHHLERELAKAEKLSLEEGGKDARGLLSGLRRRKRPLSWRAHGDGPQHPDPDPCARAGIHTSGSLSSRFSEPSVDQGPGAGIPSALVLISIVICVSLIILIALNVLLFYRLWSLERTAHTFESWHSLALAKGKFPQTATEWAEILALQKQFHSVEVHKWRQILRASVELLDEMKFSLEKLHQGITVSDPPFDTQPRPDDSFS

Compound in this assay: CN[C@@H]1C[C@H]2O[C@@](C)([C@@H]1OC)n1c3ccccc3c3c4c(c5c6ccccc6n2c5c31)C(=O)NC4 [staurosporine]
Description: log2 fold change of tryptic peptide abundance, ligand vs vehicle (limited proteolysis) (log2 ratio); higher = more trypsin-susceptible (destabilized). As to conditions: ligand concentration: 20 uM; sample: K562 cleared lysate; digestion: 4 min, 22 C (HT-PELSA RT4min, Orbitrap Astral).
Consider “EXOSC8 (peptide sequence: LGNTTVICGVK, peptide start residue: 53) (UniProt Q96B26)”, for which the log2 fold change was 0.578. Regarding “UniProt Q96CS4 (peptide sequence: FSYPSLLVSHR, peptide start residue: 186)”, the log2 fold change stood at 0.314. As for “ZKSCAN4 (peptide sequence: EDIAQIPTHAEAGEQEGR, peptide start residue: 289) (UniProt Q969J2)”, the figure is 0.301; as for “L3MBTL2 (peptide sequence: GMKVEVLNSDAVLPSR, peptide start residue: 213) (UniProt Q969R5)”, -0.568; as for “UniProt Q969U6 (peptide sequence: TFFSWLASQR, peptide start residue: 556)”, -0.314.

For “CCDC47 (peptide sequence: IMNEEDPEKQR, peptide start residue: 444) (UniProt Q96A33)”, the log2 fold change is -0.134. Take “MCRS1 (peptide sequence: DEVLEHELMVADRR, peptide start residue: 298) (UniProt Q96EZ8)”: the log2 fold change stood at 0.326. As for “EVI5L (peptide sequence: LQLQELSDTWQAHLAR, peptide start residue: 527) (UniProt Q96CN4)”, the figure is -0.871. Regarding “APBB2 (peptide sequence: GVLSLIDTLK, peptide start residue: 740) (UniProt Q92870)”, the log2 fold change came to 0.0394.

As to “GRAMD1A (peptide sequence: LLINSVFHVGAER, peptide start residue: 370) (UniProt Q96CP6)”, the log2 fold change is 0.177.
